Measured values: paper PMC7876045
The exact form of at least one protein or probe is not confirmed.

System: RNAP sigma70 holoenzyme (Esigma70) (Escherichia coli)
Assay: KMnO4 footprinting
Conditions: +NTP + GreB, bubble reduced but not eliminated; 40 mM Tris-HCl pH 8.0, 1 mM DTT, 0.1 mg/ml BSA, 10 mM MgCl2, 50 mM KCl, 37 C (transcription buffer); 150 nM Esigma70, sample mixed 1:1 with 20 mM KMnO4 for 15 s; recombinant protein; label: 5'-32P on template or non-template strand; probe letters rebuilt from the primers and the genome

Row | Sequence | binding result
1 | ACCTCGGTATGCCTTGTGACTGGCTTGACAAGCTTTTCCTCAGCTCCGTAAACTCCTTTCAGTGGGAAATTGTGGGGCAAAGTGGGAATAAGGGGTGAGGCTGGCATGTTCCGGGGAGCAA (double strand) [mraZ promoter (G1p) permanganate template] | binds
2 | ATCGCCAGCGCGCGATGATGTTCCGAAGACTATAAGGCATGTTATAGTCTGGATTATATTGAGGCAAGTCACCCTCCCATTTATTCAGAGTAAAAGTCTATTCTGTGATAAATGGC (double strand) [minC promoter (G1d) permanganate template] | binds
